Measured values published in article PMC9889330.
No constants are given. Whether binding was seen depends on the method and setting. Binding seen in cells or lysates may run through a third protein. Some results given as binding are weak or reduced against the parent protein; the word gives no strength. Where a sequence is shown, tags or fusion partners need not be part of it.

The chains behind the UniProt entries cited, without tags or fusion partners.
UniProt Q12778: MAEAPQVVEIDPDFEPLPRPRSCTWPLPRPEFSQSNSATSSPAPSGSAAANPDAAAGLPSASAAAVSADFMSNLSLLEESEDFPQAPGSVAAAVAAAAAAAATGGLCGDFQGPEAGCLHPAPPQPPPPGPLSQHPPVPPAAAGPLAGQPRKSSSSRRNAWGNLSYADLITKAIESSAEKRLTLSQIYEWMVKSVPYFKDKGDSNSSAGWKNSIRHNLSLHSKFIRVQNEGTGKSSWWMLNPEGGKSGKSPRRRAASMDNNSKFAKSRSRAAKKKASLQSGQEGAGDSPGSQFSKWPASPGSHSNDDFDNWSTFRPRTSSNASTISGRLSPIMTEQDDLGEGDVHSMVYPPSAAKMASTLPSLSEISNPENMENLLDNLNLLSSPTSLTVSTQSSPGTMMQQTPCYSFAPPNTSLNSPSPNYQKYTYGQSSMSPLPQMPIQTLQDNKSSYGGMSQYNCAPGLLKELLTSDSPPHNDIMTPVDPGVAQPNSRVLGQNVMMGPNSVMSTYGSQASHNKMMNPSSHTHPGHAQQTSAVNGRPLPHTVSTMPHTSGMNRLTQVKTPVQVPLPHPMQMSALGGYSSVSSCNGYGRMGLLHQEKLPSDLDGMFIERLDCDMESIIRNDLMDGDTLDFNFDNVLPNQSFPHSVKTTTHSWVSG

Target: T1, serum/glucocorticoid regulated kinase 2 (SGK2) (UniProt Q9HBY8)
T1 sequence: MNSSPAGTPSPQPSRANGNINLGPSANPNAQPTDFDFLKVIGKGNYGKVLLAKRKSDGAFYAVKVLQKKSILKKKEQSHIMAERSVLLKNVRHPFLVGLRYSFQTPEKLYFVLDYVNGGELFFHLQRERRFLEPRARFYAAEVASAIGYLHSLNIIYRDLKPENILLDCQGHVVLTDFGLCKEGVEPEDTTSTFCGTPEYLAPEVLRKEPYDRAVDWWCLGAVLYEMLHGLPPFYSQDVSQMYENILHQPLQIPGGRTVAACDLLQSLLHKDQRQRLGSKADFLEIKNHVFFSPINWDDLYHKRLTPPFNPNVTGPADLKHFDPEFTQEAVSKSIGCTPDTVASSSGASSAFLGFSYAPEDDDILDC
Experiment: co-IP; lysates of PC3 and DU145 cells with SGK2 overexpression; 5 ug antibody (anti-SGK2 or anti-FOXO1) and 500 ug protein, Protein A + G magnetic beads overnight at 4 °C, washed with Tris-buffered saline; anti-IgG as negative control; western blot

binding: binds
Substance: forkhead box O1 (FOXO1) (from UniProt Q12778 1-655)
